From ChEMBL document CHEMBL3988442, “University of Dundee, Small-Polar-MMV Screening Library” (2021).

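Whole-parasite assay of Trypanosoma brucei over 72 hours; the read-out is not stated. Concentration: 30 µM. Direction is inferred from retests: higher values go with stronger inhibition. Values scatter widely below zero; nearly all retest evidence comes from the higher of the two concentrations used. Of about 64,000 compounds tested this way, about 940 (1.5%) reached 50% or more in at least one test.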

Each number is a percent effect as filed.
How 0% and 100% were set is not recorded. Most values in the screen are low, and negative values occur.
This is an unselected part of the compounds tested.

structure | Percent Effect
CS(=O)(=O)NC(=O)CCc1cccc(OC2CCCC2)c1 | -27.06
Cc1nn(C(C)(C)C)c(=O)n1CC(=O)NC(C)(C)C | -37.28
Cc1noc(CN(Cc2cccc(C#N)c2)Cc2cccs2)n1 | -30.75
CNS(=O)(=O)c1cccc(C(C)NCc2cccc(C)c2C)c1 (stereo unspecified) | -34.27
CN1CCN(Cc2cccc(NCc3ncc[nH]3)c2)CC1 | -32.8
OCCC1CN(c2ncnc3[nH]cnc23)CCN1Cc1ccccc1 (stereo unspecified) | -29.41
N#Cc1cccnc1NCc1cccnc1N1CCCCC1 | -72.24
[H][C@]12CCCCN1CCC[C@H]2CCc1nc(C(C)C)no1 | 7.384
Cc1cccc(C2CCCCN2C(=O)CCCS(C)(=O)=O)c1C (stereo unspecified) | 24.5
CC(C)(C)c1noc(OCC(=O)NC2CCCC2)n1 | -29.13
CCOc1ncccc1C(=O)N(C)Cc1ncc(C)c(OC)c1C | -16.41
O=C(COc1coc(CN2CCCCC2)cc1=O)Nc1ccc(Cl)cc1 | 23.97
Cn1cc(CN2CCCn3cnc(CN4CCCC4=O)c3C2)cn1 | -38.01
COCCCC(=O)Nc1[nH]nc(-c2ccncc2)c1C | -26.44
Cn1ccnc1CN1CCCN(C(=O)c2ccc3ccccc3c2)CC1 | -17.78
O=C(CN1C(=O)CCC1=O)N1CCC(S(=O)(=O)Cc2ccco2)CC1 | 21.68
CCOc1ccccc1C(CC(=O)N(C)C)NC(C)=O (stereo unspecified) | -1.133
N#Cc1cn(C2CC2)c(=O)n(Cc2cc(-c3cccs3)on2)c1=O | -130.2
Cc1ccc(N2CCc3c(CN(C)Cc4ccco4)cncc3C2)nn1.Cl.Cl | -4.486
CN(Cc1ccc(Cl)s1)C1CCCN(c2cccnn2)C1 (stereo unspecified) | 6.745
Cn1cc(-c2nc(CN3CCn4c(nnc4C4CC4)C3)cs2)cn1 | -11.75
O=C(Cc1ccccn1)N1CCC2(CCCN(CC3CCOCC3)C2)C1 (stereo unspecified) | -235.1
CC(NC(=O)NCCNc1ncccn1)c1cccs1 (stereo unspecified) | 29.81
[H][C@]12CCN(Cc3ccc(C)o3)C[C@@]1([H])OCCN(S(C)(=O)=O)C2 | -47.89
NC(=O)c1c(NC(=O)CCC(=O)O)sc2c1CCc1ccccc1-2 | -5.38
O=S(=O)(NCC(O)c1cccs1)c1ccccc1Cl (stereo unspecified) | -21.57
c1coc(-c2nc(CNCCn3cccn3)cs2)c1 | -9.918
O=c1n(Cc2ccc(C(F)(F)F)cc2)nc2ncccn12 | -31.54
NC(=O)C1(c2cnccn2)CCCN1C(=O)Cc1ccsc1 (stereo unspecified) | -23.06
Cn1nnc(C2(NC(=O)c3ccccc3)CCCC2)n1 | -22.32
CN(C)c1ccc(CN2CCC(C(O)Cc3ccccc3)CC2)cn1 (stereo unspecified) | 9.764
CC(C)n1cc(CN2CCCN(C(=O)c3nccnc3N)CC2)cn1 | -42.91
CCc1noc(C)c1C(=O)N1CCCC1Cn1cccn1 (stereo unspecified) | -28.39
CN1CCN(C(=O)Cc2ccc(F)cc2)Cc2cccnc21.O=C(O)C(F)(F)F | -33.69
O=C(O)C(F)(F)F.O=C(O)C(F)(F)F.[H][C@]12C[C@@H](Cn3cncn3)N(C)[C@@]1([H])CCN(Cc1cccc(C#N)c1)C2 | 48.63
Cc1ccc(CN2CCC3(CC(C(=O)NCC4CC4)=NO3)C2)s1 (stereo unspecified) | -6.81
O=C(NCC1CC1)C1CSCN1S(=O)(=O)c1cccc(F)c1 (stereo unspecified) | -77.95
COc1cccc2c1ccn2CC(=O)Nc1nc[nH]n1 | -5.221
Cl.O=C(c1cccnc1)N1CCC2(CC1)CNc1c(F)cccc12 | -40.75
CNc1cc(CNC(=O)c2ccccc2)nc(-c2ccncc2)n1 | 16.26
CCCc1cc(=O)n(CC(N)=O)c(-n2nc(C)cc2C)n1 | 25.58
CC(C)Cn1ncc(C(=O)O)c1C1CC1 | -44.59
[H][C@@]12CN(C(=O)c3cnccn3)C[C@]1([H])C(=O)N(Cc1csc(C)n1)C2 | -19.31
CN(CC1=CCCN(Cc2cccc(C#N)c2)C1)C(=O)c1ccco1 | 1.006
Cc1cc2nc(C(C)C)cc(NCc3ccncc3)n2n1 | 2.19
CN(C)CC1CN(Cc2nnc(C(C)(C)C)o2)CCO1 (stereo unspecified) | -22.54
O=C(NCc1cccs1)C1CNCC12CCOCC2.O=C(O)C(F)(F)F (stereo unspecified) | 19.18
Cc1ccc2c(c1)Oc1ncccc1C(=O)N2 | -23.67
COc1ccccc1OCC(=O)Nc1ncccc1Cl | -4.092
O=C(C1CCOC1)N1CCc2ncnc(C3CC3)c2CC1 (stereo unspecified) | -0.2657
CCOC(=O)c1nnc2ccccc2c1N1CCN(CC)CC1 | -8.605
Fc1ccccc1NCc1nc2n(n1)CCCCC2 | -37.7
Cc1ccc(N2CCCC(N3CCC4(CC3)OCCO4)C2=O)cc1 (stereo unspecified) | 16.59
CC(C)=CCCC(C)CN1CCC(n2cc(C(C)(C)O)nn2)CC1 (stereo unspecified) | -12.39
NC(=O)CS(=O)(=O)Cc1ccc(OCc2ccc(F)cc2)cc1 | -15.79
N#CCCN(Cc1ccco1)C(=O)CCCc1ccccc1 | -44.18
COCC(=O)NCc1cc(=O)n2c(n1)CN(C)CCC2.O=C(O)C(F)(F)F | -90.84
Cc1noc(C)c1CN1CCCC2(C1)CN(c1nccs1)CCO2.O=C(O)C(F)(F)F (stereo unspecified) | -19.66
O=C(Cn1cc(I)cn1)N1CCCCCC1 | -10.36
O=C(O)C(F)(F)F.[H][C@@]12CCN(C3CCOCC3)C[C@@]1([H])[C@H](C(=O)NC1CC1)CCO2 | 26.16
O=C(O)C(F)(F)F.[H][C@@]12CCN(Cc3c(C)noc3C)C[C@]1(C(=O)NCC1CC1)CCO2 | 25.76
Cc1ccccc1CN(CCN(C)C)Cc1ccc(S(C)(=O)=O)cc1 | 2.314
Cc1ccc(C(=O)N2CCN(CC(O)c3ccc(F)cc3)CC2)s1 (stereo unspecified) | -16.83
O=C(O)C(F)(F)F.[H][C@@]12CCN(CC3CCOC3)[C@@]1([H])CC(=O)N2Cc1csc(C)n1 (stereo partly specified) | -31.37
CCC(Nc1nc(C(F)(F)F)nc2ccccc12)C(=O)O (stereo unspecified) | 0.9747
Cc1cc(C2CCCN2Cc2cc(=O)n(C)c(=O)n2C)no1 (stereo unspecified) | -17.27
COc1cccn(CC(=O)N(C)CCOc2cc(C)cc(C)c2)c1=O | 21.57
O=C(NCCc1cc(F)ccc1F)NCC(O)C1CC1 (stereo unspecified) | 45.41
CC(NCc1cc(F)ccc1F)c1ccc(OCC(=O)NC2CC2)cc1 (stereo unspecified) | 9.022
COc1ccc(C(=O)Nc2cnn(CC(=O)NC3CCCC3)c2)c(O)c1 | 24.69
CC1(NC(=O)Cc2csc(C(C)(C)C)n2)CCS(=O)(=O)C1 (stereo unspecified) | -60.82
O=S(=O)(c1ccccc1)N1CCCC(c2nccs2)C1 (stereo unspecified) | -11.39
Cc1nn(C)c(Cl)c1S(=O)(=O)N(C)c1ccc(Cl)cn1 | 10.37
Cc1nc(C)n(C2CCCN(C(=O)c3nc(C)n4ccccc34)C2)n1 (stereo unspecified) | 16.38
COc1ccc2c(c1)CCCN(C(C)C(=O)N1CCCC1)C2 (stereo unspecified) | -25.3
O=C(O)C(F)(F)F.O=C(O)C(F)(F)F.O=C(O)C(F)(F)F.[H][C@@]12CCN(Cc3ccccn3)C[C@]1([H])[C@@H](CN(C)Cc1ccco1)OC2 | 2.762
O=C(c1nc2c(s1)CCCN2CC1CC1)N1CCCC1 | -20.4
CNC(=O)C1(c2cnccn2)CCCN1C(=O)Cc1ccsc1 (stereo unspecified) | -21.85
CC(C)CCN(C(=O)c1nc(S(C)(=O)=O)n2ccccc12)C1CC1 | 7.364
CC(C)CCN1CCC2(CCCN(c3nncs3)C2)C1.O=C(O)C(F)(F)F (stereo unspecified) | -171.5
COC(=O)c1cccc(C(=O)N2CCCCC2CCn2ccnc2C)c1 (stereo unspecified) | 31.68
Cn1cccc1C(=O)N1Cc2c(CN3CCCCC3)nn(C)c2C1 | -6.902
Cc1cc2c(=O)n3c(nc2s1)CCN(Cc1[nH]cnc1C)CC3.Cl | -2.938
Cn1cc(-c2c(C#N)c(N)nc3c2CCc2[nH]ccc2-3)cc1C#N | 13.78